Here are results for one molecule from PMC11027339.

Protein sequences, listed by entry. Tags and fused reporters are not part of them.
UniProt Q6PER3: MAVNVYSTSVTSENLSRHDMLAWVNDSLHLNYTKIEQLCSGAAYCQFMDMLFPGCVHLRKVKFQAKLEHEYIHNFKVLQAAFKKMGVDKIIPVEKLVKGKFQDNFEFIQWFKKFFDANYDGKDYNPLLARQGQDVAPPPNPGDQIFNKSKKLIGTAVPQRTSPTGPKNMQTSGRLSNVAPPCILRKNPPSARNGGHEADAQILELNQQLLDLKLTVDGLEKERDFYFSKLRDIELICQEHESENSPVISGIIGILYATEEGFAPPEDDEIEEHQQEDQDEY

For assay [1], the target named is T1, Microtubule end-binding protein 1 (EB1), murine (mouse (endogenous in cerebellum)) (UniProt Q61166).
T1 sequence: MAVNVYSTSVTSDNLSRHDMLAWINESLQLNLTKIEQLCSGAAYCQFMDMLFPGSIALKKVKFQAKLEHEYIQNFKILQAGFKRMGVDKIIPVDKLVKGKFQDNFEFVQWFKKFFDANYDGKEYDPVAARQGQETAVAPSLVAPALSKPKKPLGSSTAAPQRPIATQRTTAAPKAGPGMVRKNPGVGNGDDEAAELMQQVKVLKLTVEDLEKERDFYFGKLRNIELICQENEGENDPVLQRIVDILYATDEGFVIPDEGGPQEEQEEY
The assay can be described thus: co-IP; EB1 or EB3 antibody cross-linked to AminoLink Plus resin; 1 mg wild-type mouse cerebellum lysate (N-PER) supplemented with 1 mg NAP/Davunetide, overnight at 4 °C; stringent washes with high detergent buffers; eluates immunoblotted for Adnp, Sirt1, EB1, EB3 and GAPDH.

Assay [2] concerns the target Microtubule end-binding protein 3 (EB3), murine (mouse (endogenous in cerebellum)) (UniProt Q6PER3). The assay is described as above.

Results are given in words; binding and its absence hold for the method and conditions named. Binding seen in cells or lysates may run through a third protein. Some binding calls cover weakened binding; strength is not graded here.

B1: Activity-dependent neuroprotective protein (Adnp), murine (protein, UniProt Q9Z103 1-1108)
chain: MFQLPVNNLGSLRKARKTVKKILSDIGLEYCKEHIEDFKQFEPNDFYLKNTTWEDVGLWDPSLTKNQDYRTKPFCCSACPFSSKFFSAYKSHFRNVHSEDFENRILLNCPYCTFNADKKTLETHIKIFHAPNSSAPSSSLSTFKDKNKNDGLKPKQADNVEQAVYYCKKCTYRDPLYEIVRKHIYREHFQHVAAPYIAKAGEKSLNGAVSLGTNAREECNIHCKRCLFMPKSYEALVQHVIEDHERIGYQVTAMIGHTNVVVPRAKPLMLIAPKPQDKKGMGLPPRISSLASGNVRSLPSQQMVNRLSIPKPNLNSTGVNMMSNVHLQQNNYGVKSVGQSYGVGQSVRLGLGGNAPVSIPQQSQSVKQLLPSGNGRSFGLGAEQRPPAAARYSLQTANTSLPPGQVKSPSVSQSQASRVLGQSSSKPPPAATGPPPSNHCATQKWKICTICNELFPENVYSVHFEKEHKAEKVPAVANYIMKIHNFTSKCLYCNRYLPTDTLLNHMLIHGLSCPYCRSTFNDVEKMAAHMRMVHIDEEMGPKTDSTLSFDLTLQQGSHTNIHLLVTTYNLRDAPAESVAYHAQNNAPVPPKPQPKVQEKADVPVKSSPQAAVPYKKDVGKTLCPLCFSILKGPISDALAHHLRERHQVIQTVHPVEKKLTYKCIHCLGVYTSNMTASTITLHLVHCRGVGKTQNGQDKTNAPSRLNQSPGLAPVKRTYEQMEFPLLKKRKLEEDADSPSCFEEKPEEPVVLALDPKGHEDDSYEARKSFLTKYFNKQPYPTRREIEKLAASLWLWKSDIASHFSNKRKKCVRDCEKYKPGVLLGFNMKELNKVKHEMDFDAEWLFENHDEKDSRVNASKTVDKKHNLGKEDDSFSDSFEHLEEESNGSGSPFDPVFEVEPKIPSDNLEEPVPKVIPEGALESEKLDQKEEEEEEEEEDGSKYETIHLTEEPAKLMHDASDSEVDQDDVVEWKDGASPSESGPGSQQISDFEDNTCEMKPGTWSDESSQSEDARSSKPAAKKKATVQDDTEQLKWKNSSYGKVEGFWSKDQSQWENASENAERLPNPQIEWQNSTIDSEDGEQFDSMTDGVADPMHGSLTGVKLSSQQA
As for B1, the binding entry in assay [1] and in assay [2] was “binds” throughout.
